Laboratory results taken from the supplement of paper PMC10849652.
The list shows a part of the results.

The chains behind the UniProt entries cited, without tags or fusion partners. Where a name states a change or a piece, a line headed by the entry shows the natural chain unless it says otherwise.
UniProt Q9UJS0: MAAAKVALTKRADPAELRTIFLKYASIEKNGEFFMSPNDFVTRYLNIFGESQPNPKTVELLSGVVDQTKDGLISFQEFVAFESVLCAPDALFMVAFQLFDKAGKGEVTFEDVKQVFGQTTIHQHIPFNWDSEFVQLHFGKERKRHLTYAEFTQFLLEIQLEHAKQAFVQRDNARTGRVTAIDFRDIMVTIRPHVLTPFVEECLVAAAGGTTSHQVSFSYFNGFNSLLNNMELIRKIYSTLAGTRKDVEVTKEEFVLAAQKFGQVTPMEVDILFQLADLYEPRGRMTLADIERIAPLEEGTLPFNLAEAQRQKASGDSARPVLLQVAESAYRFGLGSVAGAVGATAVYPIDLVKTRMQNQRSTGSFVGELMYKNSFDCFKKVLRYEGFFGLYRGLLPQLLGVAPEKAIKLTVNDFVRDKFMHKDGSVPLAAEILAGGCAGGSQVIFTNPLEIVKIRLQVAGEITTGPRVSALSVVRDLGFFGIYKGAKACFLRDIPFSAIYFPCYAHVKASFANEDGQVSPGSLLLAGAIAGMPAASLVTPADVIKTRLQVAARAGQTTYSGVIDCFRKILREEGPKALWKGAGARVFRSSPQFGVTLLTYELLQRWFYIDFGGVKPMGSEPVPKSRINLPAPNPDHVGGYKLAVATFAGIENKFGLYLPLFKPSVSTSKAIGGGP
UniProt O00400: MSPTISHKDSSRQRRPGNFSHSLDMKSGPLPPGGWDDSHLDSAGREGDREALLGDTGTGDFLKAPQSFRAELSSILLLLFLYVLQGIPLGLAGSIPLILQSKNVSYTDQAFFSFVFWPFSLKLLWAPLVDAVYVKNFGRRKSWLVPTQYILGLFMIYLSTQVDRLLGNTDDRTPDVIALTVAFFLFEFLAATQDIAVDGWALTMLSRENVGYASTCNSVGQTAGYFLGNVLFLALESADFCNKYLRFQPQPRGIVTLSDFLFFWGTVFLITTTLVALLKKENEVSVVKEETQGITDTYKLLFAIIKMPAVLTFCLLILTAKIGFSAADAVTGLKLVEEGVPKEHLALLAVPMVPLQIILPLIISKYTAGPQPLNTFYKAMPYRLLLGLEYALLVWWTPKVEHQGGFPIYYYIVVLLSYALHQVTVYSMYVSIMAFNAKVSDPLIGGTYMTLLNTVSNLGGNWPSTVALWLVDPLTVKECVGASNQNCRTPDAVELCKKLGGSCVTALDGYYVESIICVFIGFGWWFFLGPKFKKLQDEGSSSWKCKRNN
UniProt Q8NEW0: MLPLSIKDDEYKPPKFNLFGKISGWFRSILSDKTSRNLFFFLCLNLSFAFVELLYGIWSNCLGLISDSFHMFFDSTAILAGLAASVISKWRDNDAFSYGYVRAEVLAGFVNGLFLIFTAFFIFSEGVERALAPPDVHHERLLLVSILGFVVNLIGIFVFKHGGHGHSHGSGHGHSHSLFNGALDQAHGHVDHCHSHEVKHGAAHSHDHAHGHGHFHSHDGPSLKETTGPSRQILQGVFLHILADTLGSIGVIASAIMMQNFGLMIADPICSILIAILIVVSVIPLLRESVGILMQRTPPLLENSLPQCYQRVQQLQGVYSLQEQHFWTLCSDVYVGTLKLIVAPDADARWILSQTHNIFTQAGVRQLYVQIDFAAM
UniProt Q01650: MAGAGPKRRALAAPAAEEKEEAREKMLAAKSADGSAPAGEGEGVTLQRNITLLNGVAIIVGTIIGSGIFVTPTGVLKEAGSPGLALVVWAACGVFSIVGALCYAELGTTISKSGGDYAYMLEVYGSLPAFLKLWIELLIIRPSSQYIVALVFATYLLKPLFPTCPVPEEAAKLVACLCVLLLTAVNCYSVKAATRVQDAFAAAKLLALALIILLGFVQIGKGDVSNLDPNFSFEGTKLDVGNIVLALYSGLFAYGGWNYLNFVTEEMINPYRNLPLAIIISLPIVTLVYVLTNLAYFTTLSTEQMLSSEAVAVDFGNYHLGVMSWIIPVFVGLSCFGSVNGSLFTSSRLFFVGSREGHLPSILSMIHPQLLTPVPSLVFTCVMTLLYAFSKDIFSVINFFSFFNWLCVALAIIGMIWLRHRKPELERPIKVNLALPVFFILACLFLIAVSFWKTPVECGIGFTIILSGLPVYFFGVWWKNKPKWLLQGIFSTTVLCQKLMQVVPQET
UniProt Q9NVC3: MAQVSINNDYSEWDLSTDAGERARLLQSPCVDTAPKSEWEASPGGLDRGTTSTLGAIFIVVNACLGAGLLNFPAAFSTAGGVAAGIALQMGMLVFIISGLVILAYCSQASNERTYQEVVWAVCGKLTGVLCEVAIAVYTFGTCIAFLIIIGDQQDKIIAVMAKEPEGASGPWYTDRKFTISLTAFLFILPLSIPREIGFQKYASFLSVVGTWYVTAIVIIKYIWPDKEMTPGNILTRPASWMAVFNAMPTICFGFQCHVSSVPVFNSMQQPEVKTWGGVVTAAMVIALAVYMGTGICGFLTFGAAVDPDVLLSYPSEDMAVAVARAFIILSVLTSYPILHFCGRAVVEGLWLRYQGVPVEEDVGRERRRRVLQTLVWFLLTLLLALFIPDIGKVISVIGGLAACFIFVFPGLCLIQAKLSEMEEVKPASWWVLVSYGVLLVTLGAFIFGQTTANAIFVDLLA
UniProt O14975, whole entry, looked up: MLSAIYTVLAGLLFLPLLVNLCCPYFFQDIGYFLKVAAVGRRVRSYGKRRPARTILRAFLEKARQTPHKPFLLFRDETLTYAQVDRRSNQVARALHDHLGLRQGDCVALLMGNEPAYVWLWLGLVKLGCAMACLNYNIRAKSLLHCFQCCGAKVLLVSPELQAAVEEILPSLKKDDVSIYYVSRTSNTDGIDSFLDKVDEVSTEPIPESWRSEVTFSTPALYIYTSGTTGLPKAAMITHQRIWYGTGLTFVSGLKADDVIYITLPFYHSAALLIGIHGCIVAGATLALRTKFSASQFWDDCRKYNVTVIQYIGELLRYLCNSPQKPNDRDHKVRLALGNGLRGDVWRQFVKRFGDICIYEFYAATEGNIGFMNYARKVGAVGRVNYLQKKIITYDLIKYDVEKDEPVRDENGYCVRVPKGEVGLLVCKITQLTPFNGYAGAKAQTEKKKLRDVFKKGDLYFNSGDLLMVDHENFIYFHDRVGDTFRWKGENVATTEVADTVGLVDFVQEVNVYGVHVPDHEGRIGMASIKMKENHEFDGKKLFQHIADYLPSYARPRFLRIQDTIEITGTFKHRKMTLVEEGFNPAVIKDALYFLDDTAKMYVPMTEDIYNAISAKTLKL
UniProt Q6YBV0: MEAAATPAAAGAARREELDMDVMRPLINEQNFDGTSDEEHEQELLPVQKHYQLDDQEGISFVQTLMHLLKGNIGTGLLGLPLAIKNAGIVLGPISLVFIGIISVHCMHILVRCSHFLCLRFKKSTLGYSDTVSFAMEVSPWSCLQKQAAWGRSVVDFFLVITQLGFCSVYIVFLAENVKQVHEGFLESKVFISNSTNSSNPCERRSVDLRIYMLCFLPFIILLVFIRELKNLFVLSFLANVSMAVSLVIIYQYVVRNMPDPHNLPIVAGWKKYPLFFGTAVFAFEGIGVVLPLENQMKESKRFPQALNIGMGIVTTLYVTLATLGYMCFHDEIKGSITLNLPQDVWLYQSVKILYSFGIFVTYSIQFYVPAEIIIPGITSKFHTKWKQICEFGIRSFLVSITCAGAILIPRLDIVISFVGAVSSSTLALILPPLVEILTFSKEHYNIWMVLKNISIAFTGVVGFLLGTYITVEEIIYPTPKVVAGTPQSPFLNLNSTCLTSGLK
UniProt Q9BXS9: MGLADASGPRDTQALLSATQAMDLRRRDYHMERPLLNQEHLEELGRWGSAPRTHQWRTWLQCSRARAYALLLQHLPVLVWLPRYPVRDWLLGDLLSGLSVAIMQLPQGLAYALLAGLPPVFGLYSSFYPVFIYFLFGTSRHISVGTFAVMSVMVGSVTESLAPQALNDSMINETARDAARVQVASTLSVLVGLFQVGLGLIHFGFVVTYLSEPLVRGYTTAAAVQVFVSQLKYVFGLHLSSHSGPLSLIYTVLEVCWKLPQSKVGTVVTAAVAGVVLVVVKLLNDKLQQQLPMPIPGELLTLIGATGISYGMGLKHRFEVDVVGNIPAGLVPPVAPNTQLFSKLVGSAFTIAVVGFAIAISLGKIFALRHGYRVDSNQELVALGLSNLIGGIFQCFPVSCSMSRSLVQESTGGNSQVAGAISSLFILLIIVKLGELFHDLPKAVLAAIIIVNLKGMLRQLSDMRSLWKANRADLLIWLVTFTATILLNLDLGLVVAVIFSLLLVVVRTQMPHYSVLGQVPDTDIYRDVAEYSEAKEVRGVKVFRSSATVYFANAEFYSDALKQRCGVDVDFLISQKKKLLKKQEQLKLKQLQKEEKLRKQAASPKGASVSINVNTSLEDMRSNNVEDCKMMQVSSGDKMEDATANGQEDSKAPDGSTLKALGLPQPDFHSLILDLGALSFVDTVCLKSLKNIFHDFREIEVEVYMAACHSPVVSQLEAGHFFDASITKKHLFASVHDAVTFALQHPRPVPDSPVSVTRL
UniProt Q86VD7: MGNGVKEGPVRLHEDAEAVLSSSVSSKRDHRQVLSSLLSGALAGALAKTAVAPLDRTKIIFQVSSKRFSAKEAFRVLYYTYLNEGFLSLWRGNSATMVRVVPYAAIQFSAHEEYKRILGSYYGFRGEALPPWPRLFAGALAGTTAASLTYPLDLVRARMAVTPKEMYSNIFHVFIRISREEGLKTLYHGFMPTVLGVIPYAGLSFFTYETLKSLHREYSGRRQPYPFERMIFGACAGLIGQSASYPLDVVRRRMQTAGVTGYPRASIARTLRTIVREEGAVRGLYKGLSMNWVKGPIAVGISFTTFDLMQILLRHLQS
UniProt O00193: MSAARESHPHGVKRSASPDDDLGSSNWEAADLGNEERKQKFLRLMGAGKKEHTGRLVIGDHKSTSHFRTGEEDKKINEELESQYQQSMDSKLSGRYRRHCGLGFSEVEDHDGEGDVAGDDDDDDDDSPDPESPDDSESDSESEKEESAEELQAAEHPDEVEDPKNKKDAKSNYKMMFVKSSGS
UniProt L0R6Q1: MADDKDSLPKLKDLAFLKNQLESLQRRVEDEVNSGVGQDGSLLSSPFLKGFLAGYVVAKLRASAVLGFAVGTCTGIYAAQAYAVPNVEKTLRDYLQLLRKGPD
UniProt P48029: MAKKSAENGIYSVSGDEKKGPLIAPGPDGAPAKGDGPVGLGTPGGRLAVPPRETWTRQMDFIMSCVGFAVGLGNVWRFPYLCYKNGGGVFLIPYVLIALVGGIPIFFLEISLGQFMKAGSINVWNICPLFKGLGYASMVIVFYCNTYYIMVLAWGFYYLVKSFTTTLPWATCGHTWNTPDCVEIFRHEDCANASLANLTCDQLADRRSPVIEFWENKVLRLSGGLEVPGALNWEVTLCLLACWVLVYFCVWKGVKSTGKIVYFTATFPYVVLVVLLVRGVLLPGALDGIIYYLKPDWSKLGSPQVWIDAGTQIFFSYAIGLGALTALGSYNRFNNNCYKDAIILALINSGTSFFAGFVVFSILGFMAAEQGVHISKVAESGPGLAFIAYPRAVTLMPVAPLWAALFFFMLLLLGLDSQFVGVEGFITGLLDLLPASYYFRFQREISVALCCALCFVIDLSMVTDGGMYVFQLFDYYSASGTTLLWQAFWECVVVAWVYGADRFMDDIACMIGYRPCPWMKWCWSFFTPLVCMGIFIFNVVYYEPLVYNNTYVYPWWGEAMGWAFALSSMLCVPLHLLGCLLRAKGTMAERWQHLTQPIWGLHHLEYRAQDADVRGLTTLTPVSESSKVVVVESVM
UniProt Q9Y6M5: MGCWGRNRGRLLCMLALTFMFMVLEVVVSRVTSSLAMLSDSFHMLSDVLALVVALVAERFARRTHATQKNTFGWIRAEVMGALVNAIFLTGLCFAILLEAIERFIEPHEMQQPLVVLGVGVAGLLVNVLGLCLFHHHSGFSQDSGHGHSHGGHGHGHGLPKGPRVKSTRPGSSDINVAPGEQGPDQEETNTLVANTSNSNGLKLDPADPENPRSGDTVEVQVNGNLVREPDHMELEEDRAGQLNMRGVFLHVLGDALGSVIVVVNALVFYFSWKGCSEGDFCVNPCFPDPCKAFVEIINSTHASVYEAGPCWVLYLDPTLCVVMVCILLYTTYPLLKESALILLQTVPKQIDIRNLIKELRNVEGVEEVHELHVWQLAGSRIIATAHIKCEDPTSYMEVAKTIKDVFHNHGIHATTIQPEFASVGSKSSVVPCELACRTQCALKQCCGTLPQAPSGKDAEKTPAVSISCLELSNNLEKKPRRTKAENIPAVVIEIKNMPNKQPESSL
UniProt P05141: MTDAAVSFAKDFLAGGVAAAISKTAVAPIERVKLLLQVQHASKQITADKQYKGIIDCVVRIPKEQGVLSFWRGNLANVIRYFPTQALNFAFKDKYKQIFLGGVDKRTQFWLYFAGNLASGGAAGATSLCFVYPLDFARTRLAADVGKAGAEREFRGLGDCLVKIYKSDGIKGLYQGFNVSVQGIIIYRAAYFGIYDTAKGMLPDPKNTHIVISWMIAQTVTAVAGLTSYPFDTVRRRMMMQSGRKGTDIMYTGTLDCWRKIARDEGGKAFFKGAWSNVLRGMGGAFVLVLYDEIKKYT

compound: Cc1nc(Nc2n[nH]c3c2CN(C(=O)N[C@H](CN(C)C)c2ccccc2)C3(C)C)c2sccc2n1; assay: log2 fold change, soluble protein after heating vs DMSO (PISA); higher = thermal stabilisation; K562 lysate, 10 uM; active = over 0.2 and 3.5 SD of the protein, either way, in both replicates (recomputed)
Summary of the method: (§1)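 Log-two fold change in thermal stability relative to solvent controls is reported from duplicates. For each sample, crude K562 extract from dounce-homogenised pellets in PBS pH 7.4 with 1 mM MgCl2, at 1 mg/mL protein, was treated with 10 μM compound for 30 min. Aliquots heated for 3 min across 48°C-58°C were pooled, brought to 0.5% NP-40 at 4°C and cleared at 21,000xg for 90 min. The supernatant was quantified by TMTpro 16plex LC-MS/MS with channel sums equalised.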

log2 fold change, inactive:
SLIRP (UniProt Q9GZT3) 0.005
SLC25A13 isoform 2 (UniProt Q9UJS0) -0.011
SLC2A1 (UniProt P11166) 0.012
SLC25A22 (UniProt Q9H936) -0.018
SLC44A2 (UniProt Q8IWA5) 0.037
SLC33A1 (UniProt O00400) -0.011
SLC25A3 isoform 2 (UniProt Q00325) -0.001
SLC38A9 (UniProt Q8NBW4) 0.034
SLC6A6 (UniProt P31641) 0.004
SLC30A7 (UniProt Q8NEW0) -0.071
SLC7A5 (UniProt Q01650) 0.008
SLC38A7 (UniProt Q9NVC3) 0.012
SLC43A3 isoform 2 (UniProt Q8NBI5) 0.033
SLC4A1AP (UniProt Q9BWU0) 0.04
SLC27A2 (UniProt O14975) -0.027
SLC36A4 (UniProt Q6YBV0) 0.191
SLC26A6 (UniProt Q9BXS9) 0.05
SLC25A21 (UniProt Q9BQT8) 0.037
SLC25A4 (UniProt P12235) 0.031
SLC38A10 (UniProt Q9HBR0) -0.073
SLC25A42 (UniProt Q86VD7) 0.049
SMAP (UniProt O00193) -0.015
SLC3A2 isoform 3 (UniProt P08195) -0.015
SLC25A25 isoform 3 (UniProt Q6KCM7) -0.015
SLC9A1 (UniProt P19634) 0.117
SLC4A7 isoform 7 (UniProt Q9Y6M7) -0.023
SLC35A4 (UniProt L0R6Q1) 0.063
SLC9A3R2 (UniProt Q15599) -0.002
SMAD4 (UniProt Q13485) -0.011
SLC6A8 isoform 2 (UniProt P48029) 0.085
SLC4A2 (UniProt P04920) 0.087
SLC30A1 (UniProt Q9Y6M5) -0.073
SLC25A31 (UniProt Q9H0C2) 0.012
SMAP2 (UniProt Q8WU79) 0.026
SLC6A8 (UniProt P48029) -0.038
SLC25A5 (UniProt P05141) 0.019
SLC25A1 (UniProt P53007) 0.037
SMAP1 isoform 2 (UniProt Q8IYB5) -0.034

compound: Cc1nc(Nc2ncc(C(=O)Nc3c(C)cccc3Cl)s2)cc(N2CCN(CCO)CC2)n1 [dasatinib]; assay: as above
Summary of the method: as §1

log2 fold change, inactive:
SLIRP (UniProt Q9GZT3) -0.03
SLC25A13 isoform 2 (UniProt Q9UJS0) 0.016
SLC2A1 (UniProt P11166) 0.006
SLC25A22 (UniProt Q9H936) 0.029
SLC44A2 (UniProt Q8IWA5) 0.158
SLC33A1 (UniProt O00400) -0.012
SLC25A3 isoform 2 (UniProt Q00325) 0.004
SLC38A9 (UniProt Q8NBW4) 0.074
SLC6A6 (UniProt P31641) -0.077
SLC30A7 (UniProt Q8NEW0) -0.065
SLC7A5 (UniProt Q01650) 0.055
SLC38A7 (UniProt Q9NVC3) 0.047
SLC43A3 isoform 2 (UniProt Q8NBI5) 0.04
SLC4A1AP (UniProt Q9BWU0) 0.017
SLC27A2 (UniProt O14975) 0.038
SLC36A4 (UniProt Q6YBV0) -0.174
SLC26A6 (UniProt Q9BXS9) -0.4
SLC25A21 (UniProt Q9BQT8) 0.037
SLC25A4 (UniProt P12235) 0.052
SLC38A10 (UniProt Q9HBR0) -0.009
SLC25A42 (UniProt Q86VD7) 0.03
SMAP (UniProt O00193) 0.127
SLC3A2 isoform 3 (UniProt P08195) 0.028
SLC25A25 isoform 3 (UniProt Q6KCM7) 0.03
SLC9A1 (UniProt P19634) -0.035
SLC4A7 isoform 7 (UniProt Q9Y6M7) 0.03
SLC35A4 (UniProt L0R6Q1) 0.024
SLC9A3R2 (UniProt Q15599) 0.027
SMAD4 (UniProt Q13485) -0.014
SLC6A8 isoform 2 (UniProt P48029) 0.034
SLC4A2 (UniProt P04920) -0.082
SLC30A1 (UniProt Q9Y6M5) 0.028
SLC25A31 (UniProt Q9H0C2) -0.003
SMAP2 (UniProt Q8WU79) -0.013
SLC6A8 (UniProt P48029) -0.021
SLC25A5 (UniProt P05141) 0.126
SLC25A1 (UniProt P53007) 0.022
SMAP1 isoform 2 (UniProt Q8IYB5) 0.006
